Values from PubChem BioAssay AID493246 (Drosophila RNAi Screening Center, 2011)
In all, the deposit lists about 21,000 reagents; this is an unselected part of those with a known target gene and a result. In the full data, 429 (2%) are marked active. 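Values are raw and not normalised between plates; calls rest on per-plate z-scores that were not deposited.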 Unmarked entries are inactive. The numbers tell different reagents against one gene apart. Not stated in the record: the amount of reagent, the time to read-out.

Purpose: 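Genes fly cells need to grow and stay alive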 (primary screen)
System: Drosophila Kc and S2R+ cells
Knock-down reagent: long dsRNA against Drosophila genes
Detection: 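Raw, unnormalised count of remaining cells in each well; per-plate z-scores of cell number underlie the calls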
Scale: Kc cell number and S2R+ cell number: higher = more cells remaining
Hit rule: 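Active when the per-plate z-score of cell number is 3 or more in the direction of fewer cells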

The opening 2 entries as a preview:
Kc cell number, rep 1	Kc cell number, rep 2	S2R+ cell number, rep 1	S2R+ cell number, rep 2	target	reagent
1.63e6	1.77e6	1.37e6	1.46e6	EMC10	1
1.29e6	1.31e6	1.25e6	1.31e6	SuUR	1

Main list, repeating the preview:
Kc cell number, rep 1	Kc cell number, rep 2	S2R+ cell number, rep 1	S2R+ cell number, rep 2	target	reagent
1.63e6	1.77e6	1.37e6	1.46e6	EMC10	1
1.29e6	1.31e6	1.25e6	1.31e6	SuUR	1
1.25e6	1.29e6	1.19e6	1.23e6	CG5885	1
1.42e6	1.57e6	1.22e6	1.28e6	CrebA	1
1.44e6	1.54e6	1.24e6	3.28e5	CG13970	1
1.52e6	1.58e6	1.15e6	1.19e6	CG9926	1
5.93e5		9.24e5		Tango5	1
9.36e5 (active)	1.03e6	7.81e5	9.54e5	RpS15	1
1.61e6	1.61e6	1.26e6	1.40e6	CG15152	1
1.63e6	1.62e6	1.27e6	1.46e6	prim	1
6.53e5		9.53e5		CBP	1
1.29e6	1.42e6	1.26e6	1.27e6	CG10383	1
1.64e6	1.64e6	1.20e6	1.36e6	tsr	1
1.29e6	1.44e6	9.31e5	9.23e5	RpLP0-like	1
1.55e6	1.43e6	9.95e5	1.18e6	CG34056	1
1.56e6	1.62e6	1.32e6	1.45e6	Src42A	1
1.51e6	1.60e6	1.26e6	1.28e6	Theg	1
1.28e6	1.27e6	1.05e6	1.19e6	CG14855	1
1.55e6	1.58e6	1.02e6	3.93e5	CG17493	1
1.49e6	1.55e6	1.15e6	1.30e6	CG31275	1
1.29e6	1.72e6	1.13e6	1.24e6	vnd	1
1.42e6	1.46e6	9.65e5	1.11e6	vnd	2
1.67e6	1.59e6	1.09e6	1.20e6	ppk26	1
1.08e6	1.23e6	4.12e5	4.64e5	mts	1
